The numbers were not newly measured in patent US6471968B1, “Multifunctional nanodevice platform” (Regents of the University of Michigan, priority 2000, dated 2002), which cites them from elsewhere.

SMILES strings stand for the structures.

Turning to `CC(=O)O[C@H]1C(=O)[C@@]2(C)[C@H]([C@H](OC(=O)c3ccccc3)[C@]3(O)C[C@H](OC(=O)[C@H](O)[C@@H](NC(=O)c4ccccc4)c4ccccc4)C(C)=C1C3(C)C)[C@]1(OC(C)=O)CO[C@@H]1C[C@@H]2O` [paclitaxel], the solubility in water result is “poorly soluble in water”.
